According to the supplement of paper PMC10849652:
The list shows a part of the results.

By UniProt entry, the sequences of proteins in these tests, tags left out. Where a name states a change or a piece, a line headed by the entry shows the natural chain unless it says otherwise.
UniProt Q96E29: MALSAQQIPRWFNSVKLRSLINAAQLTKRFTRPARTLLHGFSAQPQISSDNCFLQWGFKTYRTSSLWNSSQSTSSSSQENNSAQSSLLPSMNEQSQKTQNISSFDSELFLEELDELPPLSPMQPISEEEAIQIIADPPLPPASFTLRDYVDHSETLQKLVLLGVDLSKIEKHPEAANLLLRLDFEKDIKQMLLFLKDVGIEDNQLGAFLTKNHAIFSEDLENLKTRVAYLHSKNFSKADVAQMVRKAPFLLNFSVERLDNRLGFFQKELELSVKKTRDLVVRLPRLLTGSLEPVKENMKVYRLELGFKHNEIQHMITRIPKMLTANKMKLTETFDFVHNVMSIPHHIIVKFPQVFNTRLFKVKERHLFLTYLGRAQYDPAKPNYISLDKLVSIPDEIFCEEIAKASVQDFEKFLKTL
UniProt P20585: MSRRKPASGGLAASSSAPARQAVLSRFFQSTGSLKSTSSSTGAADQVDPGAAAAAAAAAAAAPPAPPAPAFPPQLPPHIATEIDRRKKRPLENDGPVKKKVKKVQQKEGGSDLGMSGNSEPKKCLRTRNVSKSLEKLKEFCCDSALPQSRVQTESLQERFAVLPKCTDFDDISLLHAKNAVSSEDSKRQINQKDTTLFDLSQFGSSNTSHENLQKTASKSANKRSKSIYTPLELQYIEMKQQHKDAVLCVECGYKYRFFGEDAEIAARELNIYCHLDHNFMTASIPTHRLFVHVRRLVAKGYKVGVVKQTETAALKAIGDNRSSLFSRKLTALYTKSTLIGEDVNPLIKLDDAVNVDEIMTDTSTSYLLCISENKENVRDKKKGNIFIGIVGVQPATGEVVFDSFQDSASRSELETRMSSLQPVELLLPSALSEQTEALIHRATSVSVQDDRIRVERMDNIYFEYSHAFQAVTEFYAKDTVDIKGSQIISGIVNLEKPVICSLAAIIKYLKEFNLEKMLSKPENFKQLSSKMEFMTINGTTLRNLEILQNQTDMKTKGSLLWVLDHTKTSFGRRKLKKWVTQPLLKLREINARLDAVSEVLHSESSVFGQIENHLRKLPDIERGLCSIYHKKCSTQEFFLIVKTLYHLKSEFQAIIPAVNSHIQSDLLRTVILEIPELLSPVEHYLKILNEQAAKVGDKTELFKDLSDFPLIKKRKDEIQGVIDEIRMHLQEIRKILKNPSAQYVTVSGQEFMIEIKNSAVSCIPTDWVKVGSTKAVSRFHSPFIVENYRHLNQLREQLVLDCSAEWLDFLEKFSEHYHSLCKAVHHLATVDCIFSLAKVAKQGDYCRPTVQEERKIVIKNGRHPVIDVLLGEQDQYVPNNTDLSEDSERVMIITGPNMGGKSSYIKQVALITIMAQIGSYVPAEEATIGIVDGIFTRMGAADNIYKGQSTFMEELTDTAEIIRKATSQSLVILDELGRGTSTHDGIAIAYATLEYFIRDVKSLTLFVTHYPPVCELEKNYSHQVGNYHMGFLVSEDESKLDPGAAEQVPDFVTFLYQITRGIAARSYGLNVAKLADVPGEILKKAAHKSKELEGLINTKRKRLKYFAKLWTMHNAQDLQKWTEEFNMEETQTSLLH
UniProt Q969V6: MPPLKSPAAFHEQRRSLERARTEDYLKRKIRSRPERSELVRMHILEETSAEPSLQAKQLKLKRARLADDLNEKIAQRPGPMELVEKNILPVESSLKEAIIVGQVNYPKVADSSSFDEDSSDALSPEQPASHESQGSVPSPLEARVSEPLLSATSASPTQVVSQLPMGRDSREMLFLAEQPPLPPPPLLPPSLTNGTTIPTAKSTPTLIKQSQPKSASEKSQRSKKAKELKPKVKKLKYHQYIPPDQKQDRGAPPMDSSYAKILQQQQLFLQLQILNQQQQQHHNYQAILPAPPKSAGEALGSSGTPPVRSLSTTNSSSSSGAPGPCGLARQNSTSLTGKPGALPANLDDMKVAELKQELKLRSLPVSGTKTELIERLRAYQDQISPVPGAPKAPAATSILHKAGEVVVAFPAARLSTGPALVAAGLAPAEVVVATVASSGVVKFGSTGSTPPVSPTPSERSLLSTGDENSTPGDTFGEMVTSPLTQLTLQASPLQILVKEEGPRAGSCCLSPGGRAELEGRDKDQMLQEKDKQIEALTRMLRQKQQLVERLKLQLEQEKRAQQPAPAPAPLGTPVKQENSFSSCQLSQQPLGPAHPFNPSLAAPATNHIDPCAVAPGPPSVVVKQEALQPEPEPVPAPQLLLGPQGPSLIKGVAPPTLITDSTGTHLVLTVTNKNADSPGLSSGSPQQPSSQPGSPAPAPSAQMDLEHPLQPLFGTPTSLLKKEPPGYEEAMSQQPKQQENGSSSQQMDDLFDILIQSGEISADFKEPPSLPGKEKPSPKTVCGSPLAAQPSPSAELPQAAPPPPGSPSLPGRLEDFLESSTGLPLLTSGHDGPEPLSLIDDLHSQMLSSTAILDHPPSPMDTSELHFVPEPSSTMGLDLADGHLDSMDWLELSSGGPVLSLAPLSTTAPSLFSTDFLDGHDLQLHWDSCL
UniProt Q9HD23: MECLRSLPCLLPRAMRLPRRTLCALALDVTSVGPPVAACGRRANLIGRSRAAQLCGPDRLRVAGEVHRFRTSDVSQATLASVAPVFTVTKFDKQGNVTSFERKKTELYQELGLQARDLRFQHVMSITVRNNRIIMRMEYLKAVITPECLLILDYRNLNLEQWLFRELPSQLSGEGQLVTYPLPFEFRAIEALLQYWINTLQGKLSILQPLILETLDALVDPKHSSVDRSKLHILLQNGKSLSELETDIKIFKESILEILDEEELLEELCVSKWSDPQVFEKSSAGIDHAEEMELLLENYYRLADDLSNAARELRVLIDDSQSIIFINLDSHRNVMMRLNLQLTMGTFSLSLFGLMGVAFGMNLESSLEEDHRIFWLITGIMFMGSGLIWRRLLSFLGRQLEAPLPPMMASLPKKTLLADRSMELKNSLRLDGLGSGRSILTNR
UniProt Q68DK7: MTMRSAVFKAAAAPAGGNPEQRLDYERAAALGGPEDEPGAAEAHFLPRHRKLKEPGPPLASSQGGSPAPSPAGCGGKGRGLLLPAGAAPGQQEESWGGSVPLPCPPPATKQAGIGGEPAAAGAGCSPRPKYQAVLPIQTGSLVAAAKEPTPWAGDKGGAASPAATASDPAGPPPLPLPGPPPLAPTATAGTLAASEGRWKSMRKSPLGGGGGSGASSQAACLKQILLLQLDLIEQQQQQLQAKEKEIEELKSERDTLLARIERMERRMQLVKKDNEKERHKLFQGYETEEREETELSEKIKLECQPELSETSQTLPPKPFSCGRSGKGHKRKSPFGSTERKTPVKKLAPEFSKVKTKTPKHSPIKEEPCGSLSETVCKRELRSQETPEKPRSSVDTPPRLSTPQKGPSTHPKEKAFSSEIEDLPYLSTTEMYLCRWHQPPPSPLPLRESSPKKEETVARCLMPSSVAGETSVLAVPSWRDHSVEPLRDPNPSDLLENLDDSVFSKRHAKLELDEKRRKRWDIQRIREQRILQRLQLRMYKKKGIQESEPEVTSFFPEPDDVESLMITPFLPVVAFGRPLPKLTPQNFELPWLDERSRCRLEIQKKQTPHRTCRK
UniProt Q9Y3D2: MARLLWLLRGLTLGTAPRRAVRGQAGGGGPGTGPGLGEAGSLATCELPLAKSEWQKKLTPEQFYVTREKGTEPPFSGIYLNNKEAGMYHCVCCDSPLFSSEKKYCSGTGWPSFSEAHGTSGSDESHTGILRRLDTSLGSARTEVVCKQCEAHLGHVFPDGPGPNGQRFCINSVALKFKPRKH
UniProt Q96E11: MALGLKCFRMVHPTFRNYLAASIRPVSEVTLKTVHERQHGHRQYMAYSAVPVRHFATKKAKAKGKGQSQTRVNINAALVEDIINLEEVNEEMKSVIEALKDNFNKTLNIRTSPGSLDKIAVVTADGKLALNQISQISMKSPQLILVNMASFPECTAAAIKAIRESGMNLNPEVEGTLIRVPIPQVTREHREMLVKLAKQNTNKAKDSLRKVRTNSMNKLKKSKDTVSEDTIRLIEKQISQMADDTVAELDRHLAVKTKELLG
UniProt Q9Y217: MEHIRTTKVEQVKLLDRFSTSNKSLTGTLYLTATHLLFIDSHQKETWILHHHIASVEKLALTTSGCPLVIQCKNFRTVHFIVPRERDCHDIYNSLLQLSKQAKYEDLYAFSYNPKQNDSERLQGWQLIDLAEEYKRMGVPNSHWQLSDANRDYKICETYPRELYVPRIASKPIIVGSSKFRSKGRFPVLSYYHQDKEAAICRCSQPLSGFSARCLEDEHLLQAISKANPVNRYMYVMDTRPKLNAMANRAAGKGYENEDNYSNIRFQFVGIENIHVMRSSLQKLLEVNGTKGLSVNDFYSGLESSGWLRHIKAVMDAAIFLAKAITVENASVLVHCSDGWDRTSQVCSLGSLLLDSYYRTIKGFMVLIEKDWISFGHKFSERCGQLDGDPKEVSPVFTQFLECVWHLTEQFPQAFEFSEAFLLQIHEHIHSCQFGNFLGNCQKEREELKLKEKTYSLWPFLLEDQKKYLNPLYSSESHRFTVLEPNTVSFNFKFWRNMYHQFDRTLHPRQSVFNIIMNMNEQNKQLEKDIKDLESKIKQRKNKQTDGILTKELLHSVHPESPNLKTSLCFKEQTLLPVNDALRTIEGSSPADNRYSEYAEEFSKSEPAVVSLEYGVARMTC
UniProt Q9H2K0, whole entry, looked up: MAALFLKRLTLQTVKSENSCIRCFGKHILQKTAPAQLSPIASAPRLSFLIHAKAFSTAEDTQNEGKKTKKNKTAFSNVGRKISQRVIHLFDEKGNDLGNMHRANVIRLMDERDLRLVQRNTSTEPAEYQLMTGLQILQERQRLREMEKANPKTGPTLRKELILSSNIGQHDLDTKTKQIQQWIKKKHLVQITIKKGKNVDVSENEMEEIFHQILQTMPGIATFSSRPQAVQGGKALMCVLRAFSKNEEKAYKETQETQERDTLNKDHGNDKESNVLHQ
UniProt Q96DH6: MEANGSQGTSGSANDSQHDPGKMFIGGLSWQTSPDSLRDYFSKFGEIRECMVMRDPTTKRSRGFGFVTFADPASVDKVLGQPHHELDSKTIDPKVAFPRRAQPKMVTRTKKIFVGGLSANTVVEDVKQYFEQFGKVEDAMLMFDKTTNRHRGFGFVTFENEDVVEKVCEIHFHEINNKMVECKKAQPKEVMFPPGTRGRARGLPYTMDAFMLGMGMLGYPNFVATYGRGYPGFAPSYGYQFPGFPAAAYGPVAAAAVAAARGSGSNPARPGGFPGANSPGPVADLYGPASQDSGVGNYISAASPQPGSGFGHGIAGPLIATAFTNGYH
UniProt Q96QG7: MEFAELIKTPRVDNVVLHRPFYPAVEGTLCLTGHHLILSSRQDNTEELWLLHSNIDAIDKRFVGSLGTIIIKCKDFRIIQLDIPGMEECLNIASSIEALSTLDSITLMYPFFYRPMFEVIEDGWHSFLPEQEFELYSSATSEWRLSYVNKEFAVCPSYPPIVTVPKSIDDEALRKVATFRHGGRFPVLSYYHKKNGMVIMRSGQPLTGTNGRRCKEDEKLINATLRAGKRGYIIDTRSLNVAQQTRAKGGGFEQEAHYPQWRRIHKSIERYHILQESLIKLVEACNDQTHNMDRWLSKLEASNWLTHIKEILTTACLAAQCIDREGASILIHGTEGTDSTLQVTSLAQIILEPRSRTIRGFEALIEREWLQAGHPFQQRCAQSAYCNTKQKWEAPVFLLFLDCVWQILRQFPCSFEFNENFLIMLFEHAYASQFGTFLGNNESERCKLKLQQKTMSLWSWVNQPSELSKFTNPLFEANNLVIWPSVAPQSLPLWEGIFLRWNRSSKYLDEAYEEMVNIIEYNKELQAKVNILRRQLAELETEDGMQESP
UniProt P00846: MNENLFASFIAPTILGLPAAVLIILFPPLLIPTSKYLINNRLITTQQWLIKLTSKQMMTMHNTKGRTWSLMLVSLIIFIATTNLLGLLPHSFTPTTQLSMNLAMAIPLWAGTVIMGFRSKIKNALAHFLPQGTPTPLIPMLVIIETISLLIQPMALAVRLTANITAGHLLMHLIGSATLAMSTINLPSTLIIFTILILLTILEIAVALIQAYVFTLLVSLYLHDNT
UniProt P03891, whole entry, looked up: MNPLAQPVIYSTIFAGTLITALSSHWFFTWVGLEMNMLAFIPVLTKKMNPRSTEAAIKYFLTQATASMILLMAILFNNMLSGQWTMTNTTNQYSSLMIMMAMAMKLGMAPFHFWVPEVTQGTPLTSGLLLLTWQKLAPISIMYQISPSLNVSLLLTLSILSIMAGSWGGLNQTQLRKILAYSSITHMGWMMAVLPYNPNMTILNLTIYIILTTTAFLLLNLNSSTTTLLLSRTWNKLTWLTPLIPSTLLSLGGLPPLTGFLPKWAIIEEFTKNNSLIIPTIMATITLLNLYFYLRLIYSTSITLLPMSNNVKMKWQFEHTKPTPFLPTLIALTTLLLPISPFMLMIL
UniProt O75431: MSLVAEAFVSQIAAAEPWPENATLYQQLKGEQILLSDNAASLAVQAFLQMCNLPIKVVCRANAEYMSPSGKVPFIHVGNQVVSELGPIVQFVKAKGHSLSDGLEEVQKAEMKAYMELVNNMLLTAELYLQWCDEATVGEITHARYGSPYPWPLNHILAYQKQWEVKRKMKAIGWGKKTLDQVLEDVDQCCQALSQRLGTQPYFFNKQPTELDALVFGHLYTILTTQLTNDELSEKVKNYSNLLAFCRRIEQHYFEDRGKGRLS

Experiments:
Assay in all cases: log2 fold change, soluble protein after heating vs DMSO (PISA); higher = thermal stabilisation; K562 lysate, 10 uM; active = over 0.2 and 3.5 SD of the protein, either way, in both replicates (recomputed)
[1] = compound: C1=CC=C(C=C1)[C@H](COC2=CC3=C(C=C2)NC(=O)N3)NC(=O)C4=CC=CN(C4=O)CC5=CC(=C(C=C5)F)F
Procedure, shortened: (§1)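 Following dounce homogenisation of K562 pellets in PBS pH 7.4 with 1 mM MgCl2, crude extract at 1 mg/mL protein was incubated for 30 min with 10 μM compound. Aliquots were then heated for 3 min over 48°C-58°C and pooled, NP-40 was added to 0.5% at 4°C, and soluble protein was recovered as the supernatant at 21,000xg for 90 min. Channel-sum-equalised TMTpro 16plex LC-MS/MS quantified this protein. Each value, from duplicates, is a log-two fold change in thermal stability relative to solvent controls.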

[2] = compound: CC1=C(SC2=C1C(=N[C@H](C3=NN=C(N32)C)CC(=O)N)C4=CC=C(C=C4)Cl)C
Procedure, shortened: as §1

[3] = compound: CC1=C2C(=CC=C1)N=C(N(C2=O)C3=CC=CC=C3C)CN4C=NC5=C(N=CN=C54)N
Procedure, shortened: as §1

[4] = compound: Cc1sc2c(c1C)C(c1ccc(Cl)cc1)=N[C@@H](CC(=O)OC(C)(C)C)c1nnc(C)n1-2
Procedure, shortened: as §1

[5] = compound: c1ccc([C@@H]2C[C@H]2NC2CCNCC2)cc1
Procedure, shortened: as §1

Measured: log2 fold change

MTHFSD isoform 3 (UniProt Q2M296)
inactive: [1] -0.005 | [2] 0.045 | [3] -0.045 | [4] -0.018 | [5] -0.125

MRPS34 (UniProt P82930)
inactive: [1] -0.001 | [2] 0.043 | [3] -0.03 | [4] 0.092 | [5] 0.08

MRPL47 (UniProt Q9HD33)
inactive: [1] -0.014 | [2] 0.065 | [3] -0.024 | [4] 0.02 | [5] 0.04

MTMR3 (UniProt Q13615)
inactive: [1] 0.012 | [2] -0.003 | [3] 0.015 | [4] -0.033 | [5] -0.06

MTA2 (UniProt O94776)
inactive: [1] 0 | [2] 0.015 | [3] -0.004 | [4] 0.015 | [5] 0.031

MRPS31 (UniProt Q92665)
inactive: [1] -0.019 | [2] -0.048 | [3] 0.046 | [4] 0.014 | [5] 0.014

MSTO1 (UniProt Q9BUK6)
inactive: [1] -0.041 | [2] 0.01 | [3] 0.01 | [4] -0.068 | [5] 0.056

MRPL53 (UniProt Q96EL3)
inactive: [1] -0.056 | [2] -0.102 | [3] 0.079 | [4] -0.026 | [5] -0.093

MRPL50 (UniProt Q8N5N7)
inactive: [1] 0.145 | [2] -0.073 | [3] -0.013 | [4] -0.04 | [5] -0.013

MRPL9 (UniProt Q9BYD2)
inactive: [1] 0.011 | [2] 0.036 | [3] 0.035 | [4] -0.097 | [5] 0.059

MTOR (UniProt P42345)
inactive: [1] -0.022 | [2] 0.004 | [3] 0.013 | [4] 0.014 | [5] 0.029

MRPS33 (UniProt Q9Y291)
inactive: [1] 0.042 | [2] -0.045 | [3] -0.043 | [4] 0.078 | [5] 0.038

MTHFD1, A0A384N5Y3
inactive: [1] -0.003 | [2] -0.002 | [3] 0.015 | [4] 0.018 | [5] 0.071

MTERF3 (UniProt Q96E29)
inactive: [1] -0.024 | [2] 0.001 | [3] 0.08 | [4] -0.04 | [5] 0.111

MSH3 (UniProt P20585)
inactive: [1] 0.018 | [2] 0.014 | [3] 0.039 | [4] -0.008 | [5] 0.04

MTDH (UniProt Q86UE4)
inactive: [1] 0.025 | [2] 0.009 | [3] -0.016 | [4] -0.001 | [5] -0.024

MRTFA (UniProt Q969V6)
inactive: [1] 0.128 | [2] -0.183 | [3] 0.215 | [4] 0.1 | [5] 0.014

MTHFD1L (UniProt B7ZM99)
inactive: [1] -0.039 | [2] 0.025 | [3] 0.06 | [4] 0.025 | [5] 0.049

MRPL43 isoform 4 (UniProt Q8N983)
inactive: [1] -0.009 | [2] -0.022 | [3] 0.06 | [4] 0.023 | [5] -0.065

MRPS11 (UniProt P82912)
inactive: [1] -0.027 | [2] 0.059 | [3] 0.014 | [4] -0.085 | [5] 0.054

MRPS16 (UniProt Q9Y3D3)
inactive: [1] -0.017 | [2] 0.027 | [3] 0.014 | [4] 0.04 | [5] 0.041

MRS2 (UniProt Q9HD23)
inactive: [1] 0.05 | [2] -0.012 | [3] -0.003 | [4] 0.005 | [5] 0.01

MTMR14 (UniProt Q8NCE2)
inactive: [1] -0.031 | [2] 0.018 | [3] 0.03 | [4] -0.01 | [5] 0.028

MRPS18B (UniProt Q9Y676)
inactive: [1] 0.022 | [2] 0.068 | [3] -0.024 | [4] 0.038 | [5] 0.028

MRPS7 (UniProt Q9Y2R9)
inactive: [1] -0.106 | [2] 0.064 | [3] 0.037 | [4] 0.077 | [5] 0.032

MSL1 (UniProt Q68DK7)
inactive: [1] -0.05 | [2] 0.04 | [3] 0.012 | [4] -0.022 | [5] -0.046

2 records drawn at random from the list so far, as already listed:
MTMR14 (UniProt Q8NCE2)
inactive: [1] -0.031 | [2] 0.018 | [3] 0.03 | [4] -0.01 | [5] 0.028

MRPS7 (UniProt Q9Y2R9)
inactive: [1] -0.106 | [2] 0.064 | [3] 0.037 | [4] 0.077 | [5] 0.032

Carrying on:

MTCH2 (UniProt Q9Y6C9)
inactive: [1] 0.013 | [2] 0.001 | [3] -0.006 | [4] -0.014 | [5] -0.083

MSRB2 (UniProt Q9Y3D2)
inactive: [1] -0.009 | [2] -0.032 | [3] -0.13 | [4] -0.013 | [5] 0.028

MRRF (UniProt Q96E11)
inactive: [1] -0.006 | [2] -0.041 | [3] 0.011 | [4] 0.007 | [5] 0.046

MTMR6 (UniProt Q9Y217)
inactive: [1] 0.015 | [2] 0.01 | [3] 0.006 | [4] -0.065 | [5] 0.062

MRPL23 (UniProt Q16540)
inactive: [1] 0.098 | [2] 0.004 | [3] 0.005 | [4] 0.05 | [5] 0.019

MRPS26 (UniProt Q9BYN8)
inactive: [1] 0.028 | [2] -0.026 | [3] 0.005 | [4] 0.016 | [5] 0.038

MRPS18A isoform 2 (UniProt Q9NVS2)
inactive: [1] 0.005 | [2] -0.101 | [3] 0.054 | [4] 0.066 | [5] 0.2

MTMR1 (UniProt Q13613)
inactive: [1] 0.012 | [2] -0.009 | [3] 0.022 | [4] 0.077 | [5] 0.03

MTR (UniProt Q99707)
inactive: [1] -0.024 | [2] 0.014 | [3] 0.006 | [4] 0.003 | [5] -0.014

MRPS28 (UniProt Q9Y2Q9)
inactive: [1] 0.019 | [2] -0.002 | [3] 0.001 | [4] 0.025 | [5] 0.031

MT-CO1 (UniProt P00395)
inactive: [1] -0.004 | [2] -0.096 | [3] -0.06 | [4] -0.061 | [5] -0.002

MTM1 (UniProt Q13496)
inactive: [1] 0.006 | [2] -0.028 | [3] 0.034 | [4] -0.009 | [5] 0.011

MRPL49 (UniProt Q13405)
inactive: [1] -0.154 | [2] 0.019 | [3] 0.072 | [4] 0.047 | [5] 0

MT-ND4 (UniProt P03905)
inactive: [1] -0.116 | [2] -0.042 | [3] 0.021 | [4] -0.086 | [5] -0.063

MTFR1L (UniProt Q9H019)
inactive: [1] -0.007 | [2] 0.037 | [3] 0.091 | [4] 0.028 | [5] -0.003

MRPS24 (UniProt Q96EL2)
inactive: [1] -0.009 | [2] 0.088 | [3] -0.123 | [4] -0.028 | [5] 0.075

MTIF3 (UniProt Q9H2K0)
inactive: [1] -0.03 | [2] -0.048 | [3] 0.099 | [4] 0.053 | [5] 0.035

MSI2 (UniProt Q96DH6)
inactive: [1] -0.007 | [2] -0.007 | [3] -0.001 | [4] 0.048 | [5] 0.071

MRPL44 (UniProt Q9H9J2)
inactive: [1] -0.015 | [2] -0.024 | [3] 0.053 | [4] -0.007 | [5] 0.011

MRPL46 (UniProt Q9H2W6)
inactive: [1] 0.022 | [2] -0.012 | [3] 0.021 | [4] 0.026 | [5] 0.199

MTMR9 (UniProt Q96QG7)
inactive: [1] 0.073 | [2] -0.101 | [3] 0.06 | [4] 0.028 | [5] 0.053

MRPS27 isoform 2 (UniProt Q92552)
inactive: [1] -0.02 | [2] 0.035 | [3] 0.052 | [4] 0.036 | [5] -0.014

MT-ATP6 (UniProt P00846)
inactive: [1] 0.005 | [2] -0.026 | [3] -0.072 | [4] -0.263 | [5] -0.037

MTIF2 (UniProt P46199)
inactive: [1] 0.028 | [2] 0.04 | [3] 0.035 | [4] -0.025 | [5] 0.03

MT-ND2 (UniProt P03891)
inactive: [1] -0.168 | [2] -0.187 | [3] -0.029 | [4] -0.027 | [5] 0.118

MTX2 (UniProt O75431)
inactive: [1] 0.019 | [2] 0.022 | [3] 0.022 | [4] 0.057 | [5] 0.021

MRPL54 (UniProt Q6P161)
inactive: [1] -0.031 | [2] 0.027 | [3] -0.04 | [4] -0.075 | [5] 0.061
